Chains of the proteins cited; added tags and fusions are not shown.
UniProt O55143: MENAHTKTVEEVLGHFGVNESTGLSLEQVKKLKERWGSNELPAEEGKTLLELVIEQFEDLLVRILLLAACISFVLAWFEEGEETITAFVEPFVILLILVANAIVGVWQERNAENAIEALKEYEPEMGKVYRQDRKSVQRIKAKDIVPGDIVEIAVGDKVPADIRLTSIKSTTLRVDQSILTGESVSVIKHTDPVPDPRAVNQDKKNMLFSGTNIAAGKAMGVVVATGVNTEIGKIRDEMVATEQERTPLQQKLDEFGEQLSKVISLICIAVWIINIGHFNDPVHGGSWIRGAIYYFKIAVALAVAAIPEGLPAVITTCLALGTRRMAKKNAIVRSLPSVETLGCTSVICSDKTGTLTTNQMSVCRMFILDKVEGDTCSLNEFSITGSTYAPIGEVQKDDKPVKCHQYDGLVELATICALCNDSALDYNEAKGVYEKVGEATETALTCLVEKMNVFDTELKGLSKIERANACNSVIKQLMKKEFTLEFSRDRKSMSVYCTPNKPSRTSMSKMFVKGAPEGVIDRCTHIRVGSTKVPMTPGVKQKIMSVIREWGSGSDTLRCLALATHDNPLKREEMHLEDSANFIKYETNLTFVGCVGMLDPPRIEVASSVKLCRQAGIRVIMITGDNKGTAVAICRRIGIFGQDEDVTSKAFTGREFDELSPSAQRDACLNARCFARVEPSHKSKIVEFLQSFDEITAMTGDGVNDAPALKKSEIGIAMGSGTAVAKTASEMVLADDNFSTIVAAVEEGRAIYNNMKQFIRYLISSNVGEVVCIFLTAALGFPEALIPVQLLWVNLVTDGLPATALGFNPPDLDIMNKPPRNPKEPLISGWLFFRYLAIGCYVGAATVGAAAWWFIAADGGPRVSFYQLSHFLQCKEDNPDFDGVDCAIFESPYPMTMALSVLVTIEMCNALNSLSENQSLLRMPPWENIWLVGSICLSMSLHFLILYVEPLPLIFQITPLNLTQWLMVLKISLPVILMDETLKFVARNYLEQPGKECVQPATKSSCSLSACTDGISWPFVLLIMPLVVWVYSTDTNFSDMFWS

According to PMC12145851:

Experiments:
[1] = target: T1, phospholamban (PLN) (mouse (endogenous in mouse heart)) (UniProt P61014); test: affinity purification with mass spectrometry; IP-MS: unfixed, snap-frozen mouse hearts, RIPA lysate; 1 mg soluble protein with 2 μg PLN antibody overnight at 4 °C, protein A/G beads, on-bead trypsin digestion, DIA MS; mock IP without primary antibody as control
T1 sequence: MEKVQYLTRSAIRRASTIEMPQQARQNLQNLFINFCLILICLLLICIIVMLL

[2] = target: T1, phospholamban (PLN) (mouse (endogenous in mouse heart)); test: affinity purification with mass spectrometry; xIP-MS: mouse hearts fixed (cross-linked) overnight in 3 % glyoxal, RIPA lysate; 1 mg soluble protein with 2 μg PLN antibody overnight at 4 °C, protein A/G beads, on-bead trypsin digestion, DIA MS; mock IP without primary antibody as control

| binding [1] | binding [2] | Substance |
| --- | --- | --- |
| no binding | no binding | calmodulin-dependent protein kinase II (CaMKII) (mouse (endogenous in mouse heart)) (enzyme) |
| binds | binds | sarco(endo)plasmic reticulum Ca2+ ATPase (SERCA2) (from UniProt O55143 1-1044) |

These are yes or no findings as the source states them, for the method shown. In cells and extracts the contact can be indirect. A yes stands for co-enrichment or nearness to the bait. Other partners may have been found. No binding means not detected with the bait.
